In US20260001875A1, “AMINOPYRIMIDINYL DERIVATIVES FOR THE TREATMENT OF PARKINSON'S DISEASE” (UNIVERSITY OF DUNDEE, priority 2022, published 2026):
“And” between values parts separate entries of the source, which are not always exact repeats. Identical values can stand only once. Some entries share one result that the patent states for a list of compounds.

What was measured:
Rab10 pThr73 [1] = test: Rab10 Thr73 dephosphorylation (immunoblot) in WT MEFs; type: cell-based, mouse
Experimental: Western blot degradation assays for the LRRK2 protacs were performed with WT and PD-associated LRRK2 [G2019S] mouse embryonic fibroblasts (MEFs). The second-generation PROTACs were tested in parallel with the first generation PROTACs SD75, SD82, and SD100. The compounds were tested at 33 nM or […] concentrations for 4 hours or 24 hours, running two biological replicates per condition and achieving quantifications representative of both replicates. Analysis by quantitative immunoblotting was performed with readouts of the total LRRK2 (antibody recognizes epitope in C-terminus of protein), Rab10 pThr73 (physiological substrate) and LRRK2 pSer935 (biomarker phosphorylation site).
Primary MEFs were generated as described in a previous study (Wiggin et al., Mol. Cell Biol. 2002 April; 22(8):2871-81.). Briefly, the uterine horn was collected from adult female mice at day E12.5 and transferred to a 10 cm tissue culture dish containing cold PBS. Two forceps were used to tear the yolk sacs to isolate each embryo. Forceps were cleaned thoroughly with 70% ethanol between each embryo isolation. The embryos were culled, and a tissue piece was collected in a PCR tube for genotyping. The red tissue of the embryo, which grows to become the heart and liver, was removed. The remainder of the embryo was minced with a scalpel blade and incubated with 7.5 ml trypsin-EDTA solution for 10 minutes in a 37° C. tissue culture CO2 incubator. The dish was removed from the incubator and checked under a light microscope for single cells. 7.5 ml complete media was added to the trypsinised cells, and the cell suspension was transferred to a 15 ml Falcon tube, centrifuged at 1200 rpm for 5 minutes at room temperature. The trypsin was aspirated, the cell pellet was resuspended in 5 ml fresh complete media, and the cell suspension was plated in a 60 mm tissue culture dish and incubated in a 37° C., 5% CO2 tissue culture incubator. The MEFs at this stage were considered as passage 0 and were passaged and expanded for experimental use once the genotype was confirmed by allelic sequencing and immunoblotting. MEFs were cultured in Dulbecco's modified Eagle medium (DMEM) containing 10% (v/v) fetal bovine serum (FBS), 2 mM L-glutamine, 100 U/ml penicillin, and 100 μg/ml streptomycin supplemented with 1× non-essential amino acids and 1 mM sodium pyruvate.
Culturing and passaging of adherent cell lines were carried out using aseptic technique in CL1 or CL2 (for PBMC isolation) biological safety cabinets. All cells were incubated in a 37° C. incubator with 5% CO2. Cell lines were regularly tested for mycoplasma contamination. For western blot assay, the cells were seeded in 6-well plates. After treating with testing compounds at indicated concentrations and time period, the media was removed and the cells were washed with PBS and lysed in 100 μl ice-cold complete lysis buffer containing 50 mM Tris-HCl pH 7.4, 1 mM EGTA, 10 mM 2-glycerophosphate, 50 mM sodium fluoride, 5 mM sodium pyrophosphate, 270 mM sucrose, supplemented with 1 μg/ml microcystin-LR, 1 mM sodium orthovanadate, complete EDTA-free protease inhibitor cocktail (Roche) and 1% (v/v) Triton X-100. The cells were immediately placed on ice and were scraped and collected into 1.5 ml Eppendorf tubes. Cell lysates were incubated on ice for 10 minutes prior to centrifugation at 15,000 g at 4° C. for 15 minutes. The cell pellet was discarded, and supernatant was collected for analysis by quantitative immunoblotting. For long term storage, the supernatant was flash frozen and stored at −80° C. Protein concentrations of cell lysates were determined using the Bradford assay.
Cell lysates containing a quarter of a volume of 4× NuPAGE LDS sample buffer (NP0007) supplemented with 5% β-mercaptoethanol, were heated at 95° C. for 5 minutes. […]

Rab10 pThr73 [2] = test: Rab10 Thr73 dephosphorylation (immunoblot) in LRRK2^G2019S MEFs; type: cell-based, mouse

Row | SMILES | pRab10 inhibited in WT MEFs (Rab10 pThr73 [1]; 33 nM/4 h treatment) | pRab10 inhibited in WT MEFs (Rab10 pThr73 [1]; 33 nM/24 h treatment) | pRab10 inhibited in WT MEFs (Rab10 pThr73 [1]; 1 μM/4 h treatment) | pRab10 inhibited in WT MEFs (Rab10 pThr73 [1]; 1 μM/24 h treatment) | pRab10 inhibited in LRRK2^G2019S MEFs (Rab10 pThr73 [2]; 33 nM/4 h treatment) | pRab10 inhibited in LRRK2^G2019S MEFs (Rab10 pThr73 [2]; 33 nM/24 h treatment) | pRab10 inhibited in LRRK2^G2019S MEFs (Rab10 pThr73 [2]; 1 μM/4 h treatment)
1 | CNc1nc(Nc2ccc(C(=O)N3CCN(CCOCCOCCSC(C)(C)[C@H](NC(=O)C4(F)CC4)C(=O)N4C[C@H](O)C[C@H]4C(=O)NCc4ccc(-c5scnc5C)cc4)CC3)cc2OC)ncc1Cl [SD75, (2S,4R)-1-((R)-3-((2-(2-(2-(4-(4-((5-chloro-4-(methylamino)pyrimidin-2-yl)amino)-3-methoxybenzoyl)piperazin-1-yl)ethoxy)ethoxy)ethyl)thio)-2-(1-fluorocyclopropane-1-carboxamido)-3-methylbutanoyl)-4-hydroxy-N-(4-(4-methylthiazol-5-yl)benzyl)pyrrolidine-2-carboxamide] | 0-40% | 10-40% and 0-60% | 10-95% | 30-100% | 0-70% | 0-90% | 20-100%
2 | CNc1nc(Nc2ccc(C(=O)N3CCN(CCCSC(C)(C)[C@H](NC(=O)C4(F)CC4)C(=O)N4C[C@H](O)C[C@H]4C(=O)NCc4ccc(-c5scnc5C)cc4)CC3)cc2OC)ncc1Cl [SD82, (2S,4R)-1-((R)-3-((3-(4-(4-((5-chloro-4-(methylamino)pyrimidin-2-yl)amino)-3-methoxybenzoyl)piperazin-1-yl)propyl)thio)-2-(1-fluorocyclopropane-1-carboxamido)-3-methylbutanoyl)-4-hydroxy-N-(4-(4-methylthiazol-5-yl)benzyl)pyrrolidine-2-carboxamide] | 0-40% | 10-40% and 0-60% | 10-95% | 30-100% | 0-70% | 0-90% | 20-100%
3 | CNc1nc(Nc2ccc(C(=O)N3CCN(Cc4ccc(CSC(C)(C)[C@H](NC(=O)C5(F)CC5)C(=O)N5C[C@H](O)C[C@H]5C(=O)NCc5ccc(-c6scnc6C)cc5)cc4)CC3)cc2OC)ncc1Cl [SD100, (2S,4R)-1-((R)-3-((4-((4-(4-((5-chloro-4-(methylamino)pyrimidin-2-yl)amino)-3-methoxybenzoyl)piperazin-1-yl)methyl)benzyl)thio)-2-(1-fluorocyclopropane-1-carboxamido)-3-methylbutanoyl)-4-hydroxy-N-(4-(4-methylthiazol-5-yl)benzyl)pyrrolidine-2-carboxamide] | 0-40% | 10-40% and 0-60% | 10-95% | 30-100% | 0-70% | 0-90% | 20-100%
